Values from PubChem BioAssay AID1259254 (NCATS, 2017)
This is a random part of about 59,000 reagents. About 1,550 of them (2.6%) count as active. 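G2 share is only a proxy for re-replication; each gene was hit by three separate siRNAs, and active genes were retested.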 Not all columns of the deposit are shown. Reagent sequences are not shown. Not stated in the record: the amount of reagent.

- Aim: 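Genome-wide screen for genes that prevent DNA re-replication in cancer cells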 (primary screen)
- Cells: human HCT116 colorectal cancer cells
- Reagents: single siRNA against human genes
- Time to read-out: 3 days
- Measured: 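Imaged Hoechst DNA stain sorts each cell into a cycle phase by DNA amount; per plate, G2 fraction set to 0% for non-targeting and 100% for GMNN siRNA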
- Reading the numbers: G2 robust z-score and G2 cells, % of GMNN control: higher = more G2 cells, more excess DNA replication
- Call rule: 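An siRNA counts as active if its G2 robust z-score lies at least 5 MADs above the screen median; here such calls match roughly 38% of GMNN control or more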

KRT38 (keratin 38) [SID160720603] | G2 robust z-score = -0.483; G2 cells, % of GMNN control = -0.428; Outcome = inactive
KRT38 (keratin 38) [SID160720604] | G2 robust z-score = -0.0928; G2 cells, % of GMNN control = 2.31; Outcome = inactive
KRT38 (keratin 38) [SID160720605] | G2 robust z-score = 6.08; G2 cells, % of GMNN control = 45.7; Outcome = active
ZFHX4 (zinc finger homeobox 4) [SID160749408] | G2 robust z-score = 1; G2 cells, % of GMNN control = 10; Outcome = inactive
ZFHX4 (zinc finger homeobox 4) [SID160749409] | G2 robust z-score = -0.152; G2 cells, % of GMNN control = 1.89; Outcome = inactive
ZFHX4 (zinc finger homeobox 4) [SID160749410] | G2 robust z-score = -0.219; G2 cells, % of GMNN control = 1.43; Outcome = inactive
B4GALT1 (beta-1,4-galactosyltransferase 1) [SID160770658] | G2 robust z-score = -0.385; G2 cells, % of GMNN control = 0.257; Outcome = inactive
B4GALT1 (beta-1,4-galactosyltransferase 1) [SID160770666] | G2 robust z-score = 1.21; G2 cells, % of GMNN control = 11.5; Outcome = inactive
B4GALT1 (beta-1,4-galactosyltransferase 1) [SID160770672] | G2 robust z-score = 0.0444; G2 cells, % of GMNN control = 3.28; Outcome = inactive

Targets listed so far whose gene name starts with Z or z (3):
ZFHX4 (zinc finger homeobox 4) [SID160749408] | G2 robust z-score = 1; G2 cells, % of GMNN control = 10; Outcome = inactive
ZFHX4 (zinc finger homeobox 4) [SID160749409] | G2 robust z-score = -0.152; G2 cells, % of GMNN control = 1.89; Outcome = inactive
ZFHX4 (zinc finger homeobox 4) [SID160749410] | G2 robust z-score = -0.219; G2 cells, % of GMNN control = 1.43; Outcome = inactive

The listing continues:
ADM2 (adrenomedullin 2) [SID160734960] | G2 robust z-score = 0.518; G2 cells, % of GMNN control = 6.61; Outcome = inactive
ADM2 (adrenomedullin 2) [SID160749784] | G2 robust z-score = -0.553; G2 cells, % of GMNN control = -0.922; Outcome = inactive
ADM2 (adrenomedullin 2) [SID160749785] | G2 robust z-score = 0.219; G2 cells, % of GMNN control = 4.51; Outcome = inactive
ATAD3C (ATPase family AAA domain containing 3C) [SID160761225] | G2 robust z-score = 0.526; G2 cells, % of GMNN control = 6.67; Outcome = inactive
ATAD3C (ATPase family AAA domain containing 3C) [SID160761226] | G2 robust z-score = 0.311; G2 cells, % of GMNN control = 5.16; Outcome = inactive
ATAD3C (ATPase family AAA domain containing 3C) [SID160761227] | G2 robust z-score = -1.22; G2 cells, % of GMNN control = -5.62; Outcome = inactive
DGKG (diacylglycerol kinase gamma) [SID160730671] | G2 robust z-score = -0.877; G2 cells, % of GMNN control = -3.2; Outcome = inactive
DGKG (diacylglycerol kinase gamma) [SID160752431] | G2 robust z-score = -1.13; G2 cells, % of GMNN control = -4.95; Outcome = inactive
DGKG (diacylglycerol kinase gamma) [SID160752442] | G2 robust z-score = -1.02; G2 cells, % of GMNN control = -4.24; Outcome = inactive
